Where “and” joins values, the source holds several entries; their conditions need not be identical. Equal values may be shown once. Some of the results follow. Single values are uncertain here, since repeats match poorly.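 HEK293T cells were given each compound shortly before transfection with a reporter in which red mCherry is followed by the SARS-CoV-2 frameshift element and then GFP in the −1 frame, so GFP appears only after frameshifting.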

This test deals with HEK293T. Kind of test: percent viability (nuclei count) relative to control; higher = more viable cells. Conditions: 10 µM; 24 h.
`CC(=O)O[C@H]1C(=O)[C@@]2(C)[C@H]([C@H](OC(=O)c3ccccc3)[C@]3(O)C[C@H](OC(=O)[C@H](O)[C@@H](NC(=O)c4ccccc4)c4ccccc4)C(C)=C1C3(C)C)[C@]1(OC(C)=O)CO[C@@H]1C[C@@H]2O` [paclitaxel]: the percent viability was 18.4%. As for `CC(C)CCCCC(=O)N[C@@H](CCN)C(=O)N[C@@H](CN[C@@H](CCN)C(=O)N[C@H]1CCNC(=O)[C@H]([C@@H](C)O)NC(=O)[C@H](CCN)NC(=O)[C@H](CCN)NC(=O)[C@H](CC(C)C)NC(=O)[C@@H](CC(C)C)NC(=O)[C@H](CCN)NC1=O)[C@@H](C)O.CCC(C)CCCCC(=O)N[C@@H](CCN)C(=O)N[C@@H](CN[C@@H](CCN)C(=O)N[C@H]1CCNC(=O)[C@H]([C@@H](C)O)NC(=O)[C@H](CCN)NC(=O)[C@H](CCN)NC(=O)[C@H](CC(C)C)NC(=O)[C@@H](CC(C)C)NC(=O)[C@H](CCN)NC1=O)[C@@H](C)O` (stereo not given in full), the figure is 151%. As for `Cc1cc(C(C)(C)CC(C)(C)C)ccc1OCCOCC[N+](C)(C)Cc1ccccc1` [methylbenzethonium chloride], the percent viability came to 142%. With `CC(C)(C)c1cc(/C=C2\SC(=N)NC2=O)cc(C(C)(C)C)c1O` [darbufelone] the figure was 170%.

`CSCC[C@H](NC(=O)[C@H](Cc1c[nH]c2ccccc12)NC(=O)CCNC(=O)OC(C)(C)C)C(=O)N[C@@H](CC(=O)O)C(=O)N[C@@H](Cc1ccccc1)C(N)=O` [pentagastrin]: the percent viability came out at 164%. As for `CC1CCc2c(N3CCC(O)CC3)c(F)cc3c(=O)c(C(=O)O)cn1c23` (stereo not given) [nadifloxacin], the figure is 391% and 181%; as for `CN(C)CC/C=C1/c2ccccc2COc2ccc(CC(=O)O)cc21` [Olopatadine], 196%; as for `CC1(C)CCC(C)(C)c2cc(NC(=O)c3ccc(C(=O)O)cc3)ccc21` [tamibarotene], 277%. As for `CCN(CC)C(=O)C1(c2ccccc2)CC1CN` (stereo not given) [milnacipran], the figure is 245%. As for `CC(=O)OCC(=O)[C@@]1(O)[C@H](OC(C)=O)C[C@H]2[C@@H]3CCC4=CC(=O)C=C[C@]4(C)[C@@]3(F)[C@@H](O)C[C@@]21C`, the figure is 114%; as for `COc1ccc2c(c1)c(CC(=O)O)c(C)n2C(=O)c1ccc(Cl)cc1` [indometacin], 178% and 369%; as for `Cc1nnc(NS(=O)(=O)c2ccc(N)cc2)s1` [sulfamethizole], 140%. As for `O=C(c1cc(O)c(O)c(O)c1)c1ccc(O)c(O)c1O` [exifone], the percent viability was determined as 53.4%.

Turning to `O=C(O)c1cc(/N=N/c2ccc(S(=O)(=O)Nc3ccccn3)cc2)ccc1O` [sulfasalazine], the percent viability stood at 145%. With `CCC(C)n1ncn(-c2ccc(N3CCN(c4ccc(OCC5COC(Cn6cncn6)(c6ccc(Cl)cc6Cl)O5)cc4)CC3)cc2)c1=O` (stereo not given) the figure was 74.1%.

With `Cc1ccc2c(Cl)cc(Cl)c(O)c2n1` [chlorquinaldol], the percent viability came out at 335%.

Turning to `CCCCN(CCCC)CCCOC(=O)c1ccc(N)cc1` [butacaine], the percent viability turned out to be 190%. With `Oc1ccc(C2CNCCc3c2cc(O)c(O)c3Cl)cc1` (stereo not given) [fenoldopam], the percent viability is 172%. With `CNC(=O)c1c(I)c(NC(C)=O)c(I)c(C(=O)O)c1I` [iotalamic acid] the figure was 211%; with `CC(C)(C)NCC(O)c1cc(O)cc(O)c1` (stereo not given) [terbutaline], 159%; with `CCC[C@@H]1C[C@@H](C(=O)N[C@@H]([C@H]2O[C@H](SC)[C@H](O)[C@@H](O)[C@H]2O)[C@H](C)Cl)N(C)C1`, 89.3%. Take `CC(=O)OCC1=C(C(=O)O)N2C(=O)[C@@H](NC(=O)CC#N)[C@H]2SC1` [cefacetrile]: the percent viability is 377%.

For the compound `C/C(=C(\CCOP(=O)(O)O)SC(=O)c1ccccc1)N(C=O)Cc1cnc(C)nc1N` [benfotiamine], the percent viability came out at 328%.

For the compound `COc1cc(C2Oc3cc([C@H]4Oc5cc(O)cc(O)c5C(=O)[C@@H]4O)ccc3OC2CO)ccc1O` (stereo not given in full) [silibinin], the percent viability was found to be 67.3%. With `CCN(CC)CCOC(=O)C(c1ccccc1)c1ccccc1` the figure was 435%; with `CC1(C)[C@H](C(=O)O)N2C(=O)C[C@H]2S1(=O)=O` [sulbactam], 218%. As for `CC(C)COCC(CN(Cc1ccccc1)c1ccccc1)N1CCCC1` (stereo not given) [bepridil], the figure is 347% and 305%; as for `CCN(CC)CC(=O)Nc1c(C)cccc1C` [lidocaine], 174%.

Regarding `O=C(CCCN1CCC(O)(c2cccc(C(F)(F)F)c2)CC1)c1ccc(F)cc1` [trifluperidol], the percent viability turned out to be 238%. As for `CC[N+]([O-])(CC)CCOc1ccc(/C(=C(/Cl)c2ccccc2)c2ccccc2)cc1` [clomifenoxide], the figure is 87.8%.

(Values after the supplement of paper PMC8256030.)
